These are yes or no findings as the source states them, for the method shown. Some entries that bind do so weakly or less than the wild type.
Biological target: T1, OsSPX3 (pBD-OsSPX3) (rice (Oryza sativa)) (UniProt Q7XEY9)
T1 sequence: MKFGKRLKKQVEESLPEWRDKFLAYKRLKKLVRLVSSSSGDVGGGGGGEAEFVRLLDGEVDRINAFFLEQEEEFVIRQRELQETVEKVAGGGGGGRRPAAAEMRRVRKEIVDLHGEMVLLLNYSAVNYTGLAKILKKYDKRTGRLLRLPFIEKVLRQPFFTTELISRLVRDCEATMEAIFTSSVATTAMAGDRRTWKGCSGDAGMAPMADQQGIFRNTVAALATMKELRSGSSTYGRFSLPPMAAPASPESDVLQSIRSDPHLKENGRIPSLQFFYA
Assay: two-hybrid; Matchmaker Gold system, yeast strain Y2H Gold; bait in pGBKT7 (BD), prey in pGADT7 (AD); spotted on TDO, QDO and QDO with X-alpha-gal and Aureobasidin A; 30 °C, 3-4 days

The chains behind the UniProt entries cited, without tags or fusion partners.
UniProt Q336P5: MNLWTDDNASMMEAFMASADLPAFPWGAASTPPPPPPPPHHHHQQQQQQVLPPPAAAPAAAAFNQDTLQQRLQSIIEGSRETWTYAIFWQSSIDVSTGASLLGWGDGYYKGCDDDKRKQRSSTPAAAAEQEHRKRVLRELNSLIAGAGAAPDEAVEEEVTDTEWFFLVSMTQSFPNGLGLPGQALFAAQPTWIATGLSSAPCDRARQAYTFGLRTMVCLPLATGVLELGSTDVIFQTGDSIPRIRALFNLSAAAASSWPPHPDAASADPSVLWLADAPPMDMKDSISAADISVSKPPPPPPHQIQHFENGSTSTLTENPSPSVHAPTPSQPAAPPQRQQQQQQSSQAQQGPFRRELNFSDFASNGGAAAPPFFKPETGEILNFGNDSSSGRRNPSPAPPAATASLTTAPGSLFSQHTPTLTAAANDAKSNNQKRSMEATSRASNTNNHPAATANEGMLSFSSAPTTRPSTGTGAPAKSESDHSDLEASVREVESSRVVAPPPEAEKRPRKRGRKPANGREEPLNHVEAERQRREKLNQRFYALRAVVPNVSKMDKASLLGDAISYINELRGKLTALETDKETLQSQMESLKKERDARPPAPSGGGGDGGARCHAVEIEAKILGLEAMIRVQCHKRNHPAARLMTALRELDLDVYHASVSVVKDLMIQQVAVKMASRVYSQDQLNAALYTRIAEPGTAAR

binding: binds
Substance: OsMYC2 (pAD-OsMYC2) (from UniProt Q336P5 1-699)

Source: PMC8213676, “OsJAZ11 regulates phosphate starvation responses in rice”
